{"source": "PubChem BioAssay AID686943 (Drosophila RNAi Screening Center, 2013)", "assay": "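Fly genes whose loss alters ERK activation after insulin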 (primary screen)", "system": "Drosophila S2R+ haemocyte-like cells expressing YFP-tagged ERK (Rolled)", "reagent": "long dsRNA against Drosophila genes", "conditions": "insulin stimulation versus unstimulated cells; dose and duration not given", "read-out": "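Per-plate z-scores of phospho-ERK immunostaining normalised to YFP-tagged ERK, measured with and without insulin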", "scale": "replicate 1, z-score of dpERK with insulin: higher = more active ERK per ERK-YFP after insulin", "note": "The screen tested about 23,000 reagents; shown is a random part of those with a known target gene and a result. 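Extra replicates exist only for a retested subset of genes; insulin dose and duration not given; both raised and lowered dpERK matter.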 Further read-outs or replicates are left out here. Not given: the amount of reagent, the time to read-out."}
{"gene knocked down": "Pi4KIIalpha", "amplicon": "DRSC12322", "replicate 1, z-score of dpERK with insulin": 0.7}
{"gene knocked down": "Pi4KIIalpha", "amplicon": "DRSC12323", "replicate 1, z-score of dpERK with insulin": 1.22}
{"gene knocked down": "pps", "amplicon": "DRSC16057", "replicate 1, z-score of dpERK with insulin": 0.16}
{"gene knocked down": "GstD4", "amplicon": "DRSC16685", "replicate 1, z-score of dpERK with insulin": 0.95}
{"gene knocked down": "CG8012", "amplicon": "DRSC10951", "replicate 1, z-score of dpERK with insulin": 0.7}
{"gene knocked down": "Gclm", "amplicon": "DRSC15677", "replicate 1, z-score of dpERK with insulin": -0.54}
{"gene knocked down": "CG12321", "amplicon": "DRSC14499", "replicate 1, z-score of dpERK with insulin": -0.88}

Next part (3 carried over from the part before).
{"gene knocked down": "CG8012", "amplicon": "DRSC10951", "replicate 1, z-score of dpERK with insulin": 0.7}
{"gene knocked down": "Gclm", "amplicon": "DRSC15677", "replicate 1, z-score of dpERK with insulin": -0.54}
{"gene knocked down": "CG12321", "amplicon": "DRSC14499", "replicate 1, z-score of dpERK with insulin": -0.88}
{"gene knocked down": "mud", "amplicon": "DRSC19019", "replicate 1, z-score of dpERK with insulin": 0.15}
{"gene knocked down": "Ctl2", "amplicon": "DRSC14423", "replicate 1, z-score of dpERK with insulin": -0.14}
{"gene knocked down": "GMF", "amplicon": "DRSC01928", "replicate 1, z-score of dpERK with insulin": 1.65}
{"gene knocked down": "CG10996", "amplicon": "DRSC19363", "replicate 1, z-score of dpERK with insulin": 0.46}
{"gene knocked down": "Brca2", "amplicon": "DRSC04219", "replicate 1, z-score of dpERK with insulin": -0.45}
{"gene knocked down": "Brca2", "amplicon": "DRSC04220", "replicate 1, z-score of dpERK with insulin": 0.75}
{"gene knocked down": "MED31", "amplicon": "DRSC12142", "replicate 1, z-score of dpERK with insulin": 1.51}
{"gene knocked down": "dor", "amplicon": "DRSC18765", "replicate 1, z-score of dpERK with insulin": 1.24}
{"gene knocked down": "NimC3", "amplicon": "DRSC03556", "replicate 1, z-score of dpERK with insulin": 1.01}
{"gene knocked down": "NimC3", "amplicon": "DRSC22528", "replicate 1, z-score of dpERK with insulin": 0.9}
{"gene knocked down": "SCAP", "amplicon": "DRSC04869", "replicate 1, z-score of dpERK with insulin": 0.27}
{"gene knocked down": "SCAP", "amplicon": "DRSC04907", "replicate 1, z-score of dpERK with insulin": 1.91}
{"gene knocked down": "RpL8", "amplicon": "DRSC08532", "replicate 1, z-score of dpERK with insulin": 0.13}
{"gene knocked down": "RpL8", "amplicon": "DRSC08695", "replicate 1, z-score of dpERK with insulin": -1.52}
